The subject of the experiment is primary mouse Muller glia with Ascl1 overexpression. The experiment can be described thus: total cells recovered per well; higher = more cells recovered. As for the experimental part: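 Primary P11 mouse Muller glia carrying dox-inducible Ascl1 were treated with Tocriscreen Stem Cell Library compounds at 0.1, 1 or 10 uM together with doxycycline for 5 days, then profiled by sci-Plex hashing and sci-RNA-seq2. Cells were annotated by marker genes and cell-type counts per well were size-factor adjusted. Read-outs are the log2 fold change of Neuronal (NeuPre + bipolar) and ProL cell counts versus the Ascl1-only control wells of the same collection day, plus the raw number of recovered cells per well. There is one well per dose, and wells with fewer than 20 cells were discarded.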

The text below walks through data of the supplement of paper PMC11637464.

Each structure is given as a SMILES string. Counter-ions that a name gives are not always drawn. Some of the results follow. Repeats are few or missing, and single values can be far off.

As to `C=C[C@@]1(C)CC(=O)[C@]2(O)[C@@]3(C)[C@@H](O)CCC(C)(C)[C@@H]3[C@H](O)[C@H](OC(C)=O)[C@@]2(C)O1` [Forskolin] (collection day: 1), the “total cells recovered per well” value stood at 58 (0.1 µM), 58 (1 µM) and 45 (10 µM).

In the case of `C=CCNc1ncnc2ccc(Br)cc12` (collection day: 2), the “total cells recovered per well” value is, setting by setting: (0.1 µM) 67; (1 µM) 84; (10 µM) 86.

In the case of `CN(C)CCOc1cc(-c2cn[nH]c2)ccc1NC(=O)C1COc2ccccc2O1` (stereo not drawn) [SR 3677 dihydrochloride] (collection day: 2), the “total cells recovered per well” value reads like this: (0.1 µM) 62; (10 µM) 62.

In the case of `Cc1nn(-c2ccccc2)c(C)c1C=NN1CCN(Cc2ccccc2)CC1` (collection day: 1), the “total cells recovered per well” value came out at 72 (0.1 µM), 86 (1 µM) and 72 (10 µM).

For `O=c1[nH]c(=O)n([C@H]2C[C@H](O)[C@@H](CO)O2)cc1Br` (collection day: 2), the “total cells recovered per well” value is 107 (0.1 µM), 111 (1 µM) and 126 (10 µM).

As for `NC(=O)c1cccnc1` [Nicotinamide] (collection day: 2), the “total cells recovered per well” value was found to be 112 (0.1 µM), 153 (1 µM) and 132 (10 µM).

As to `CN(C)C(=N)NC(=N)N` [Metformin hydrochloride] (collection day: 1), the “total cells recovered per well” value (0.1 µM) was determined as 102, the “total cells recovered per well” value (1 µM) was 129 and the “total cells recovered per well” value (10 µM) was 99.

Take `Cc1ccc(-c2cn3c4c(sc3n2)CCCC4)cc1` [Cyclic Pifithrin-alpha hydrobromide] (collection day: 2): under “0.1 µM”, the “total cells recovered per well” value was 76.

As for `COC(=O)C1=C(C)NC(C)=C([N+](=O)[O-])C1c1ccccc1C(F)(F)F` (stereo not drawn) (collection day: 1), the “total cells recovered per well” value is, setting by setting: (0.1 µM) 58; (1 µM) 50; (10 µM) 46.

With `O=C(NC1CCOCC1)c1ccc(-c2cc(-c3c[nH]nc3-c3ccccn3)ccn2)cc1` (collection day: 2), the “total cells recovered per well” value reads like this: (0.1 µM) 59; (1 µM) 62; (10 µM) 57.

As to `O=C(O)C(Cc1c[nH]c2ccccc12)N1C(=O)c2ccccc2C1=O` (stereo not drawn) (collection day: 2), the “total cells recovered per well” value runs as follows: (0.1 µM) 52; (1 µM) 50; (10 µM) 70.

In the case of `Cc1ccccc1N=Nc1ccc(NC(=O)c2ccnn2C)c(C)c1` (collection day: 2), the “total cells recovered per well” value came out at 85 (0.1 µM) and 78 (1 µM).

`O=C(NO)c1ccc2[nH]c(=O)c(CCCc3ccccc3)nc2c1` (collection day: 2): the “total cells recovered per well” value turned out to be 48 (0.1 µM), 52 (1 µM) and 68 (10 µM).

Take `CCCC[S+]([O-])c1sc2nc(-c3cccs3)cc(-c3ccccc3)c2c1N` (stereo not drawn) (collection day: 2): the “total cells recovered per well” value is 120 (1 µM) and 62 (10 µM).

As for `O=C(Nc1cccc2cccnc12)c1ccc(N2C(=O)[C@@H]3[C@H](C2=O)[C@@H]2C=C[C@H]3C2)cc1` [endo-IWR 1] (collection day: 2), the “total cells recovered per well” value (10 µM) was found to be 96.
